# This is one part of the list.
# Protein sequences, listed by entry. Tags and fused reporters are not part of them. Lines headed by an entry give the natural chain unless they say otherwise; changes in a name come on top.
# UniProt Q92521: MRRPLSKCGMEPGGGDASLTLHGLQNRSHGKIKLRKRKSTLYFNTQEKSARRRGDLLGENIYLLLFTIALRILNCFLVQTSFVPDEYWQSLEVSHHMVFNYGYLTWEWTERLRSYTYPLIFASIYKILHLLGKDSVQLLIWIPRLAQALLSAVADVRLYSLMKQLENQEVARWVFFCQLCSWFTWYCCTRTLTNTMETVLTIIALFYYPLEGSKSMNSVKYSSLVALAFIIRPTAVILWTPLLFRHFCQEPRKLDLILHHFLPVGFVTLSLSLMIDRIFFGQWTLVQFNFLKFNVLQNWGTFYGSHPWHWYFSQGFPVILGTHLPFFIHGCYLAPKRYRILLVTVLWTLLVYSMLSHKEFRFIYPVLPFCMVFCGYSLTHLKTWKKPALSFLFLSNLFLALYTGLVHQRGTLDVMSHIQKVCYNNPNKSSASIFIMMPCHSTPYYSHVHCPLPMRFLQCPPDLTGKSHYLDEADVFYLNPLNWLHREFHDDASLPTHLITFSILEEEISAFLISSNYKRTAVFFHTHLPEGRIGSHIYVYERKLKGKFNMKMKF
# UniProt P42338: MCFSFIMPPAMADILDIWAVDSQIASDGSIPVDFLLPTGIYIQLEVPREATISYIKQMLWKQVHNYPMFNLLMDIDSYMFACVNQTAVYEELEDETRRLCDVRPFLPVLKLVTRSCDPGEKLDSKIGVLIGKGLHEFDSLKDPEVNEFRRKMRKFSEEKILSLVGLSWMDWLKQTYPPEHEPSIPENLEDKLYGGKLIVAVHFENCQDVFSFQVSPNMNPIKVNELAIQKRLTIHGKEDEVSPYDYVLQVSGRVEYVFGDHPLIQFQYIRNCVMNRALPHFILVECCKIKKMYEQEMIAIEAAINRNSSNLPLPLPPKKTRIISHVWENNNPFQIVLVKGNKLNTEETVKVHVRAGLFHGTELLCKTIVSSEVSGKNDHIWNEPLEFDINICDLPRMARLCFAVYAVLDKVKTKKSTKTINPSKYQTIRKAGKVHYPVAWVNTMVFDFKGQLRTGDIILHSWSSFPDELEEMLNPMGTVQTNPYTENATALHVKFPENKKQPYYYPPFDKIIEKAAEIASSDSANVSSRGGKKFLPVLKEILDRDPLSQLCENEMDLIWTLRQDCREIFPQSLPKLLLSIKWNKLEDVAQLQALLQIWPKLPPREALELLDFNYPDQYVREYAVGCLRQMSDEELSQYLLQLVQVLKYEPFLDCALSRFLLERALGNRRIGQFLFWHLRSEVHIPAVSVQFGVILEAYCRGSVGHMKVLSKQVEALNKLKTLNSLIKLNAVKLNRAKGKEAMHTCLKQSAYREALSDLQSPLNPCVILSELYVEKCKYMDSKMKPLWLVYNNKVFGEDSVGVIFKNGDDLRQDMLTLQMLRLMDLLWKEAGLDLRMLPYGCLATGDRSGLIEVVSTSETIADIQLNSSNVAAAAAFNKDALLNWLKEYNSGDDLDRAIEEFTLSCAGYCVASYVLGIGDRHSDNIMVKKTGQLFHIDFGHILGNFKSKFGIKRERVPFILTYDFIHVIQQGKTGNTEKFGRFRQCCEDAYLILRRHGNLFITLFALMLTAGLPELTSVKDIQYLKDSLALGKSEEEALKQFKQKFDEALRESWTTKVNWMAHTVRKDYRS
# UniProt Q9NRD5, whole entry, looked up: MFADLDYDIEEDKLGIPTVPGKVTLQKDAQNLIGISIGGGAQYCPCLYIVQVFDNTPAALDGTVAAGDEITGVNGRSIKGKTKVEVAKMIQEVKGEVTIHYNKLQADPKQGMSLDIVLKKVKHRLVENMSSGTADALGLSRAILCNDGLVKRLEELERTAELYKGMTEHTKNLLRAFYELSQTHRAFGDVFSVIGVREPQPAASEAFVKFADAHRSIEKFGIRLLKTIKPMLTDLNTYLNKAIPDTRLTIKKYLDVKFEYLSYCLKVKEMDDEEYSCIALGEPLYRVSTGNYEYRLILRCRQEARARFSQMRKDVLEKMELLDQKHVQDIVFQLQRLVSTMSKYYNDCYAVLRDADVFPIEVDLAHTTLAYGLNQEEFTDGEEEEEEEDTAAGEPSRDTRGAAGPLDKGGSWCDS
# UniProt Q9BSJ6: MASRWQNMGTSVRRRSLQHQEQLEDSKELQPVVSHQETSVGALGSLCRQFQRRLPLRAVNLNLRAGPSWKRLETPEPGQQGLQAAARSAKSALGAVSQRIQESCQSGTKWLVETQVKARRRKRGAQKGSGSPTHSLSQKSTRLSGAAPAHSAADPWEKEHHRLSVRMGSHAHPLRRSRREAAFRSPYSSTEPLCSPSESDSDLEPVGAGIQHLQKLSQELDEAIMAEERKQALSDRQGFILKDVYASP
# UniProt P55347: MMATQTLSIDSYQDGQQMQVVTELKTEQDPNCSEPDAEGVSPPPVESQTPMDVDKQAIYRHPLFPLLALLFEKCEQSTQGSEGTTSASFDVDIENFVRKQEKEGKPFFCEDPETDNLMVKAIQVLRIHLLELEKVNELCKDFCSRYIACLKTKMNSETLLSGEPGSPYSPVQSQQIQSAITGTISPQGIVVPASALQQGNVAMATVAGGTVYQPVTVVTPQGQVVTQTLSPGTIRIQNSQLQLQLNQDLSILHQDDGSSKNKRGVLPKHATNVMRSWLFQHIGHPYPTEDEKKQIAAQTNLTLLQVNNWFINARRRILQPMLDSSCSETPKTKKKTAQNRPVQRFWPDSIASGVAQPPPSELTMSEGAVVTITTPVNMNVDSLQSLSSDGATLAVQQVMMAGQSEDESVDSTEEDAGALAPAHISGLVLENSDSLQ
# UniProt Q9C010: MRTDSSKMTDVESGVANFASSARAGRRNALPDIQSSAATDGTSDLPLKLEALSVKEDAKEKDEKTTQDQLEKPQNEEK
# UniProt P42336, whole entry, looked up: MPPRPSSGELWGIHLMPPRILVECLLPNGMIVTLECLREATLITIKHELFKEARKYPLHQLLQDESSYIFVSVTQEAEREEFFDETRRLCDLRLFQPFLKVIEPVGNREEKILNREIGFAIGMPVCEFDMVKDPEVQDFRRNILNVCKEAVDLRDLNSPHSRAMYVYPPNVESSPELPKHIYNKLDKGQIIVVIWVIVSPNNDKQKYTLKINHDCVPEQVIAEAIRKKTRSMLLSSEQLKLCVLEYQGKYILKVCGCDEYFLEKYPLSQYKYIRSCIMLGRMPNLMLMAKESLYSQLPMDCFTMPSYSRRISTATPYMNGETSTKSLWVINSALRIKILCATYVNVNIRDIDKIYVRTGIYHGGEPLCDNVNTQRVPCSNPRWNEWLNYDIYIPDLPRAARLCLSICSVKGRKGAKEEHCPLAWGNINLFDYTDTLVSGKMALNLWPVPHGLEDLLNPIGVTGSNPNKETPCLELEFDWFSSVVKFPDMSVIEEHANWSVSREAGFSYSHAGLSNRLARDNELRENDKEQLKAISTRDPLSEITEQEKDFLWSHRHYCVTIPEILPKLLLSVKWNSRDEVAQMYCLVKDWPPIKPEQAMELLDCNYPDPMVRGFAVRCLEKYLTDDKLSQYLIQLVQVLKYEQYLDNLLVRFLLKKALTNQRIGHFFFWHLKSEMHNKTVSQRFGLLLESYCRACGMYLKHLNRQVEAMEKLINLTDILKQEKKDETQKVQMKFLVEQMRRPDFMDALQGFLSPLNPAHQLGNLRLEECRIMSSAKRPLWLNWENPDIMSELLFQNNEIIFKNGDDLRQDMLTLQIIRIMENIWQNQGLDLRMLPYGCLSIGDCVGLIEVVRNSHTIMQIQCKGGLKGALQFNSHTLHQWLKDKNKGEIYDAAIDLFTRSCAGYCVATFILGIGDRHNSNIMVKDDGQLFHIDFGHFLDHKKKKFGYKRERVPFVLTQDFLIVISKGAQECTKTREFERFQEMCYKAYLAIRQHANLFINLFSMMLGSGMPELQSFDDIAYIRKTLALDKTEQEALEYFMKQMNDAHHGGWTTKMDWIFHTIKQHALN
# UniProt Q8TBF5: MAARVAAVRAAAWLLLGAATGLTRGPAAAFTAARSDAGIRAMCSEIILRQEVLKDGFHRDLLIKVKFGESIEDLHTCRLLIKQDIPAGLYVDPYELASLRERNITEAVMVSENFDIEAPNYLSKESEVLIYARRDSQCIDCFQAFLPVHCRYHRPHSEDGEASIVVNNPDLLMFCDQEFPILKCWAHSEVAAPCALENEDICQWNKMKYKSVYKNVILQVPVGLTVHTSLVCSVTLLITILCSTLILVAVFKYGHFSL
# UniProt P16885: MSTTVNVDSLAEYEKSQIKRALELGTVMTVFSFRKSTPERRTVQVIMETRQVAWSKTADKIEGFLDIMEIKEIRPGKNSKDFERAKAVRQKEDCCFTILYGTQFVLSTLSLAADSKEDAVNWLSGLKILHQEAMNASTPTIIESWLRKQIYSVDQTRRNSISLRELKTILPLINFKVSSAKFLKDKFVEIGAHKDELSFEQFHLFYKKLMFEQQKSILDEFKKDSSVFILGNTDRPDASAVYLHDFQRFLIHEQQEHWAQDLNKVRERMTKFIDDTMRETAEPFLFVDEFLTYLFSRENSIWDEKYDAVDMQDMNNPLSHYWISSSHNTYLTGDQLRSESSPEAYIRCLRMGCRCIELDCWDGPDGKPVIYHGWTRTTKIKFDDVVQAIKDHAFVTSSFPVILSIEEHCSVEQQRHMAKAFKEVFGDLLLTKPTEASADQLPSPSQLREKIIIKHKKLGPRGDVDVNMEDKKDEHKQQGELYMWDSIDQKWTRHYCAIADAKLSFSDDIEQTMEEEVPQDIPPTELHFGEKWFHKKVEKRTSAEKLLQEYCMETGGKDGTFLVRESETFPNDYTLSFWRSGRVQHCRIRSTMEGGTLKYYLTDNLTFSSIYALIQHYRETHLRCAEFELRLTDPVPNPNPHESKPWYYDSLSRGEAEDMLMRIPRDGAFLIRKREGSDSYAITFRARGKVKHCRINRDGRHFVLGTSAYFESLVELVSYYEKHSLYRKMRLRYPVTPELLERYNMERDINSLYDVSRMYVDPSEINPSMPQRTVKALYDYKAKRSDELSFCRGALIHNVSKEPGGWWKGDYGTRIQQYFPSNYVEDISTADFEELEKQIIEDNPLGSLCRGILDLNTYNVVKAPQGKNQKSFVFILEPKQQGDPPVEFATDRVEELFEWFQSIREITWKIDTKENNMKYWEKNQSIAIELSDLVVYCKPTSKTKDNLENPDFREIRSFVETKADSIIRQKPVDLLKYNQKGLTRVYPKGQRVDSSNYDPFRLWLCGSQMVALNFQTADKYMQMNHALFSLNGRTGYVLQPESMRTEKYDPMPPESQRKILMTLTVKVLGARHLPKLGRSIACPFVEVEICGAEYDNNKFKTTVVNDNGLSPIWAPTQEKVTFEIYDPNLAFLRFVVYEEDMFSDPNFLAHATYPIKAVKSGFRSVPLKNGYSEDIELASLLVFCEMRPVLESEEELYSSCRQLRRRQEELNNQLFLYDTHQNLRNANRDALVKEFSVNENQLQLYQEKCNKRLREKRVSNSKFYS
# UniProt O60331: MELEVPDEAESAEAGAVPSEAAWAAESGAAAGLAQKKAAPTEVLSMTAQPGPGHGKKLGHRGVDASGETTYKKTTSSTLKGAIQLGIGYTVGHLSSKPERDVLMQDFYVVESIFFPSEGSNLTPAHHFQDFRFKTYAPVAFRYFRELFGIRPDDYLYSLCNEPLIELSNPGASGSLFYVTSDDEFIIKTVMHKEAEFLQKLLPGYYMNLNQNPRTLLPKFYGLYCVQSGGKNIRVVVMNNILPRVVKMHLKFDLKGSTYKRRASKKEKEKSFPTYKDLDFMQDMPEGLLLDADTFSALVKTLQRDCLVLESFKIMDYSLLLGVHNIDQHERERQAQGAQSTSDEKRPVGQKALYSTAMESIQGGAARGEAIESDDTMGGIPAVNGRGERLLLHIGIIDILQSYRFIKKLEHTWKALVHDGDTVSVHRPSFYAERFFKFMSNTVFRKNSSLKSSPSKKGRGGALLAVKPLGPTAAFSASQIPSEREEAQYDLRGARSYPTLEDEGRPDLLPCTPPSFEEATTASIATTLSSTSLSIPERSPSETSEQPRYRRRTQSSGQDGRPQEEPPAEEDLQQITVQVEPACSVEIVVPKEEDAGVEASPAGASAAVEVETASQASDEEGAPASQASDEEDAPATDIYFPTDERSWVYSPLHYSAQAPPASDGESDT
# UniProt Q7Z7B1: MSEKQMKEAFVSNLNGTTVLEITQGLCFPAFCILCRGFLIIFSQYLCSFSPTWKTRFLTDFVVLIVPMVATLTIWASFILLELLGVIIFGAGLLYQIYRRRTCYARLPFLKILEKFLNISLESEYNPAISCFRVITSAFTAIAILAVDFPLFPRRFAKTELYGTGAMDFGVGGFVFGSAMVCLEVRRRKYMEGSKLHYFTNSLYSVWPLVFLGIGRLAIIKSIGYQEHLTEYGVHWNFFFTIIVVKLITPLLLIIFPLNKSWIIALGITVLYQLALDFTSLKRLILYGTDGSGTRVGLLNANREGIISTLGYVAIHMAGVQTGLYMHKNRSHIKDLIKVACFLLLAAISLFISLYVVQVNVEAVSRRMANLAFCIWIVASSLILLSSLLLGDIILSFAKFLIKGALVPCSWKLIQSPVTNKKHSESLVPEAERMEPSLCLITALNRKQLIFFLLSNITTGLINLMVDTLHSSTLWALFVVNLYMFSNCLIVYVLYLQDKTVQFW
# Legend:
# Test in all cases: log2 fold change, soluble protein after heating vs DMSO (PISA); higher = thermal stabilisation; K562 cells, 10 uM, 30 min; active = over 0.2 and 3.5 SD of the protein, either way, in both replicates (recomputed)
# [1] = compound: COC1=CC=C(C=C1)CN2C=CC3=C2C=C(C=C3)C(=O)NO
# Method in brief: (§1)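 K562 cells at 2×10^6 cells/mL were treated for 30 min with 10 μM compound, and aliquots were heated for 3 min over 48°C-58°C before pooling. Extraction used PBS with 0.5% NP-40 at 4°C, and soluble protein was the supernatant after 21,000xg for 90 min, measured by TMTpro 16plex LC-MS/MS with channel sums equalised. Thermal stability values, relative to control samples and from duplicates, are log2 fold changes.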
# [2] = compound: CO[C@H]1C[C@@H]2CC[C@@H](C)[C@@](O)(O2)C(=O)C(=O)N2CCCC[C@H]2C(=O)O[C@H]([C@H](C)C[C@@H]2CC[C@H](n3cnnn3)[C@H](OC)C2)CC(=O)[C@H](C)/C=C(\C)[C@@H](O)[C@@H](OC)C(=O)[C@H](C)C[C@H](C)/C=C/C=C/C=C/1C [zotarolimus]
# Method in brief: as §1
# [3] = compound: COc1cc(C(=O)O)ccc1NC(=O)[C@@H]1N[C@@H](CC(C)(C)C)[C@](C#N)(c2ccc(Cl)cc2F)[C@H]1c1cccc(Cl)c1F [idasanutlin]
# Method in brief: as §1
# [4] = compound: COc1cc(Nc2ncc3c(n2)-c2ccc(Cl)cc2C(c2c(F)cccc2OC)=NC3)ccc1C(=O)O [alisertib]
# Method in brief: as §1
# [5] = compound: COc1cc2ncnc(Nc3ccc(F)c(Cl)c3)c2cc1OCCCN1CCOCC1 [gefitinib]
# Method in brief: as §1
# [6] = compound: COc1cccc2cc(-c3nc([C@H]4CC[C@H](C(=O)O)CC4)n4ncnc(N)c34)[nH]c12
# Method in brief: as §1
# [7] = compound: CS(=O)(=O)N1CCN(Cc2cc3nc(-c4cccc5[nH]ncc45)nc(N4CCOCC4)c3s2)CC1 [pictilisib]
# Method in brief: as §1
# [8] = compound: CON(C)C(=O)N1N=C(c2cc(F)ccc2F)S[C@@]1(CCCN)c1ccccc1 [filanesib]
# Method in brief: as §1
# [9] = compound: COc1cc2nc(-c3cc(F)ccc3O)nc(N[C@@H]3CNC[C@H]3C(C)(C)O)c2cc1OC
# Method in brief: as §1
# [10] = compound: CS(=O)(=O)CCNCc1ccc(-c2ccc3ncnc(Nc4ccc(OCc5cccc(F)c5)c(Cl)c4)c3c2)o1 [lapatinib]
# Method in brief: as §1
target,measurement,setting,value
PIGL (UniProt Q9Y2B2),log2 fold change,[1],inactive: 0.104
same,log2 fold change,[2],inactive: 0.066
same,log2 fold change,[3],inactive: -0.11
same,log2 fold change,[4],inactive: -0.033
same,log2 fold change,[5],inactive: -0.121
same,log2 fold change,[6],inactive: -0.076
same,log2 fold change,[7],inactive: -0.034
PIGM (UniProt Q9H3S5),log2 fold change,[1],inactive: 0.166
same,log2 fold change,[8],inactive: 0.046
same,log2 fold change,[2],inactive: 0.095
same,log2 fold change,[5],inactive: 0.042
PHOSPHO2 (UniProt Q8TCD6),log2 fold change,[1],inactive: -0.028
same,log2 fold change,[2],inactive: 0.089
same,log2 fold change,[3],inactive: -0.059
same,log2 fold change,[4],inactive: -0.123
same,log2 fold change,[6],inactive: -0.084
PIK3C2A (UniProt O00443),log2 fold change,[1],inactive: 0.088
same,log2 fold change,[8],inactive: -0.02
same,log2 fold change,[4],inactive: -0.076
same,log2 fold change,[5],inactive: -0.003
same,log2 fold change,[6],inactive: 0.017
PHF19 isoform 2 (UniProt Q5T6S3),log2 fold change,[1],inactive: -0.023
same,log2 fold change,[8],inactive: 0.084
same,log2 fold change,[4],inactive: 0.161
same,log2 fold change,[9],inactive: 0.133
same,log2 fold change,[5],inactive: -0.113
same,log2 fold change,[6],inactive: -0.265
same,log2 fold change,[10],inactive: 0.055
same,log2 fold change,[7],inactive: -0.069
PIGB (UniProt Q92521),log2 fold change,[1],inactive: 0
same,log2 fold change,[8],inactive: -0.032
same,log2 fold change,[2],inactive: 0.032
same,log2 fold change,[4],inactive: -0.001
same,log2 fold change,[9],inactive: -0.108
same,log2 fold change,[6],inactive: 0.063
same,log2 fold change,[10],inactive: -0.012
same,log2 fold change,[7],inactive: 0.165
PFN1 (UniProt I3L3D5),log2 fold change,[1],inactive: -0.527
same,log2 fold change,[8],inactive: 0.169
same,log2 fold change,[2],inactive: 0.001
same,log2 fold change,[3],inactive: 0.006
same,log2 fold change,[4],inactive: 0.274
same,log2 fold change,[9],inactive: 0.194
same,log2 fold change,[6],inactive: 0.118
same,log2 fold change,[10],inactive: -0.215
same,log2 fold change,[7],inactive: 0.511
PIK3CB (UniProt P42338),log2 fold change,[1],inactive: 0.063
same,log2 fold change,[8],inactive: 0.007
same,log2 fold change,[2],inactive: 0.042
same,log2 fold change,[3],inactive: -0.041
same,log2 fold change,[4],inactive: 0.003
same,log2 fold change,[9],inactive: 0.02
same,log2 fold change,[5],inactive: 0.048
same,log2 fold change,[6],inactive: 0.01
same,log2 fold change,[10],inactive: 0.001
same,log2 fold change,[7],active: 0.258
PHLPP1 (UniProt O60346),log2 fold change,[2],inactive: -0.059
PHF14 (UniProt O94880),log2 fold change,[8],inactive: -0.016
same,log2 fold change,[4],inactive: -0.094
same,log2 fold change,[6],inactive: -0.1
same,log2 fold change,[7],inactive: -0.231
PFKFB1 (UniProt P16118),log2 fold change,[8],inactive: -0.031
same,log2 fold change,[4],inactive: -0.076
same,log2 fold change,[9],inactive: -0.11
same,log2 fold change,[5],inactive: -0.055
same,log2 fold change,[6],inactive: 0.039
same,log2 fold change,[10],inactive: 0.055
same,log2 fold change,[7],inactive: -0.235
PHYKPL (UniProt Q8IUZ5),log2 fold change,[8],inactive: 0.091
same,log2 fold change,[4],inactive: 0.035
same,log2 fold change,[9],inactive: 0.11
same,log2 fold change,[5],inactive: -0.132
same,log2 fold change,[6],inactive: -0.234
same,log2 fold change,[10],inactive: -0.038
same,log2 fold change,[7],inactive: -0.024
PKHD1 (UniProt P08F94),log2 fold change,[3],inactive: -0.04
PKLR (UniProt F8W6W2),log2 fold change,[3],inactive: -0.025
same,log2 fold change,[9],inactive: 0.286
same,log2 fold change,[10],inactive: -0.883
PICK1 (UniProt Q9NRD5),log2 fold change,[8],inactive: 0.104
same,log2 fold change,[4],inactive: -0.549
same,log2 fold change,[5],inactive: 0.199
same,log2 fold change,[6],inactive: -0.203
PKMYT1 (UniProt Q99640),log2 fold change,[8],inactive: 0.057
PFN3 (UniProt P60673),log2 fold change,[8],inactive: -0.014
same,log2 fold change,[2],inactive: -0.213
same,log2 fold change,[3],inactive: -0.329
same,log2 fold change,[4],inactive: -0.224
same,log2 fold change,[9],inactive: -0.129
same,log2 fold change,[6],inactive: 0.082
same,log2 fold change,[10],inactive: -0.047
same,log2 fold change,[7],inactive: -0.145
PIMREG (UniProt Q9BSJ6),log2 fold change,[7],inactive: 0.029
"PIGBOS1, A0A0B4J2F0",log2 fold change,[8],inactive: 0.056
same,log2 fold change,[2],inactive: 0.096
same,log2 fold change,[3],inactive: 0.158
same,log2 fold change,[4],inactive: -0.028
same,log2 fold change,[9],inactive: -0.021
same,log2 fold change,[5],inactive: 0.051
same,log2 fold change,[6],inactive: 0.066
same,log2 fold change,[10],inactive: -0.009
same,log2 fold change,[7],inactive: -0.083
PHRF1 (UniProt Q9P1Y6),log2 fold change,[4],inactive: -0.001
same,log2 fold change,[9],inactive: 0.049
same,log2 fold change,[6],inactive: -0.121
same,log2 fold change,[10],inactive: 0.194
PIAS1 isoform 2 (UniProt O75925),log2 fold change,[1],inactive: 0.046
same,log2 fold change,[9],inactive: 0.172
same,log2 fold change,[10],inactive: 0.016
PI4KB isoform 2 (UniProt Q9UBF8),log2 fold change,[7],inactive: 0.007
PLA2G12A (UniProt Q9BZM1),log2 fold change,[8],inactive: -0.001
same,log2 fold change,[2],inactive: 0
same,log2 fold change,[3],inactive: -0.088
same,log2 fold change,[4],inactive: -0.046
same,log2 fold change,[9],inactive: -0.132
same,log2 fold change,[5],inactive: 0.019
same,log2 fold change,[6],inactive: 0.261
same,log2 fold change,[10],inactive: -0.122
same,log2 fold change,[7],inactive: -0.112
PKNOX1 (UniProt P55347),log2 fold change,[3],inactive: 0.104
PHETA1 isoform 4 (UniProt Q8N4B1),log2 fold change,[3],inactive: 0.187
same,log2 fold change,[9],inactive: -0.099
same,log2 fold change,[10],inactive: 0.015
same,log2 fold change,[7],inactive: -0.005
PKIG (UniProt Q9Y2B9),log2 fold change,[4],inactive: 0.251
same,log2 fold change,[6],inactive: 0.057
PKN3 (UniProt Q6P5Z2),log2 fold change,[8],inactive: -0.038
PIM1 isoform 2 (UniProt P11309),log2 fold change,[4],inactive: 0.267
same,log2 fold change,[6],inactive: -0.327
same,log2 fold change,[7],inactive: -0.126
PLAUR (UniProt Q03405),log2 fold change,[2],inactive: -0.047
same,log2 fold change,[3],inactive: 0.041
PLEKHB2 isoform 2 (UniProt Q96CS7),log2 fold change,[9],inactive: 0.087
same,log2 fold change,[10],inactive: 0.104
PIBF1 (UniProt Q8WXW3),log2 fold change,[4],inactive: -0.078
same,log2 fold change,[6],inactive: -0.251
PEX5 isoform 4 (UniProt P50542),log2 fold change,[8],inactive: 0.064
same,log2 fold change,[2],inactive: -0.048
same,log2 fold change,[3],inactive: -0.15
PKIB isoform 2 (UniProt Q9C010),log2 fold change,[4],inactive: -0.172
same,log2 fold change,[9],inactive: -0.133
same,log2 fold change,[6],inactive: -0.089
same,log2 fold change,[10],inactive: 0
same,log2 fold change,[7],inactive: 0.083
PIK3CA (UniProt P42336),log2 fold change,[8],inactive: -0.016
same,log2 fold change,[2],inactive: 0.167
same,log2 fold change,[3],inactive: 0.014
same,log2 fold change,[4],inactive: 0.103
same,log2 fold change,[6],inactive: -0.228
PLEKHA5 isoform 6 (UniProt Q9HAU0),log2 fold change,[2],inactive: 0.059
same,log2 fold change,[3],inactive: 0.031
same,log2 fold change,[4],inactive: -0.318
same,log2 fold change,[6],inactive: -0.29
same,log2 fold change,[7],inactive: 0.172
PIGX isoform 2 (UniProt Q8TBF5),log2 fold change,[8],inactive: -0.152
same,log2 fold change,[2],inactive: 0.115
same,log2 fold change,[4],inactive: -0.181
same,log2 fold change,[6],inactive: 0.074
same,log2 fold change,[7],inactive: -0.036
PLCG2 (UniProt P16885),log2 fold change,[3],inactive: -0.074
PIP5K1C isoform 3 (UniProt O60331),log2 fold change,[8],inactive: 0.027
same,log2 fold change,[7],inactive: 0.015
PGD (UniProt K7EM49),log2 fold change,[1],inactive: -0.24
same,log2 fold change,[9],inactive: 0.271
same,log2 fold change,[10],inactive: -0.078
same,log2 fold change,[7],inactive: 0.334
PFKM (UniProt F8VTQ3),log2 fold change,[1],inactive: 0.147
same,log2 fold change,[9],inactive: -0.165
same,log2 fold change,[10],inactive: 0.095
same,log2 fold change,[7],inactive: 0.193
PIGW (UniProt Q7Z7B1),log2 fold change,[8],inactive: -0.048
same,log2 fold change,[3],inactive: -0.146
same,log2 fold change,[4],inactive: -0.086
same,log2 fold change,[9],inactive: 0.032
same,log2 fold change,[5],inactive: 0.067
same,log2 fold change,[6],inactive: 0.072
same,log2 fold change,[10],inactive: -0.054
same,log2 fold change,[7],inactive: 0.063

# Retrieved one by one from the list above:
target,measurement,setting,value
PKLR (UniProt F8W6W2),log2 fold change,[9],inactive: 0.286
PFN3 (UniProt P60673),log2 fold change,[3],inactive: -0.329
PIGW (UniProt Q7Z7B1),log2 fold change,[4],inactive: -0.086
PHOSPHO2 (UniProt Q8TCD6),log2 fold change,[1],inactive: -0.028
PHYKPL (UniProt Q8IUZ5),log2 fold change,[6],inactive: -0.234

# Two neighbouring records out of the list so far, for reference:
target,measurement,setting,value
PIK3CB (UniProt P42338),log2 fold change,[3],inactive: -0.041
same,log2 fold change,[4],inactive: 0.003

# Given tab-delimited: part of the list above.
target	measurement	setting	value
PIGL (UniProt Q9Y2B2)	log2 fold change	[4]	inactive: -0.033
same	log2 fold change	[5]	inactive: -0.121
same	log2 fold change	[6]	inactive: -0.076

# — the supplement of paper PMC10849652
